PubChem BioAssay AID1159584 – Peter MacCallum Cancer Centre, 2016

Aim: 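Genes that CDH1-null MCF10A cells selectively depend on to survive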 (primary screen)
System: human MCF10A breast epithelial cells, parental and CDH1-null
Reagent: siRNA against human genes
Detection: 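Cell viability by CellTiter-Glo ATP luminescence, each line scaled to the mean of mock wells across plates, then CDH1-null over parental ratio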
Direction: CDH1-null / parental viability ratio: higher = CDH1-null cells survive relatively better than parental; CDH1-null viability vs mock: higher = more viable CDH1-null cells; parental viability vs mock: higher = more viable parental cells
This is one part, drawn at random, of about 18,000 reagents tested. The record does not give: the amount of reagent, the time to read-out.

no.	gene	CDH1-null / parental viability ratio	CDH1-null viability vs mock (fraction of mock)	parental viability vs mock (fraction of mock)
1	ZNF696 (zinc finger protein 696)	1.02	1.01	0.99
2	FAIM (Fas apoptotic inhibitory molecule)	1.15	1.13	0.98
3	TOGARAM2 (TOG array regulator of axonemal microtubules 2)	1.36	0.53	0.39
4	TIMD4 (T cell immunoglobulin and mucin domain containing 4)	1.02	0.82	0.8
5	FERMT1 (FERM domain containing kindlin 1)	0.69	0.44	0.64
6	KCNC3 (potassium voltage-gated channel subfamily C member 3)	1.09	0.94	0.86
7	GDF7 (growth differentiation factor 7)	1.17	1.01	0.86
8	TES (testin LIM domain protein)	1.21	0.63	0.52
9	MTRES1 (mitochondrial transcription rescue factor 1)	1.03	0.65	0.63
10	LINC01973 (long independently transcribed non-coding RNA 1973)	1.57	1.35	0.86
11	TFRC (transferrin receptor)	1.1	0.68	0.62
12	TCF15 (transcription factor 15)	1.11	0.97	0.87
13	OR51L1 (olfactory receptor family 51 subfamily L member 1)	0.83	0.43	0.52
14	CWC27 (CWC27 spliceosome associated cyclophilin)	0.96	0.5	0.52
15	IL36R (interleukin 36 receptor)	0.94	1.01	1.08
16	ASPN (asporin)	0.98	0.86	0.88
17	GPSM1 (G protein signaling modulator 1)	1.38	0.72	0.52
18	GRIN2D (glutamate ionotropic receptor NMDA type subunit 2D)	1.24	0.97	0.78
19	SYNDIG1 (synapse differentiation inducing 1)	1.1	1.1	1
20	NAGPA	0.72	0.6	0.83
21	ARGLU1 (arginine and glutamate rich 1)	0.84	0.74	0.88
22	CDKN1A (cyclin dependent kinase inhibitor 1A)	1.04	0.85	0.82
23	C1orf50 (chromosome 1 open reading frame 50)	1.25	0.3	0.24
24	SIDT2 (SID1 transmembrane family member 2)	0.9	0.81	0.9
25	STRA6 (signaling receptor and transporter of retinol STRA6)	1.02	0.92	0.9
26	LINC03122 (long independently transcribed non-coding RNA 3122)	0.79	0.81	1.02
27	OTOF (otoferlin)	1.21	0.8	0.66
28	LMF2 (lipase maturation factor 2)	0.98	0.94	0.96
